Results taken from the supplement of paper PMC10849652.
Some of the results follow.

The chains behind the UniProt entries cited, without tags or fusion partners. Where a name states a change or a piece, a line headed by the entry shows the natural chain unless it says otherwise.
UniProt Q9UK22: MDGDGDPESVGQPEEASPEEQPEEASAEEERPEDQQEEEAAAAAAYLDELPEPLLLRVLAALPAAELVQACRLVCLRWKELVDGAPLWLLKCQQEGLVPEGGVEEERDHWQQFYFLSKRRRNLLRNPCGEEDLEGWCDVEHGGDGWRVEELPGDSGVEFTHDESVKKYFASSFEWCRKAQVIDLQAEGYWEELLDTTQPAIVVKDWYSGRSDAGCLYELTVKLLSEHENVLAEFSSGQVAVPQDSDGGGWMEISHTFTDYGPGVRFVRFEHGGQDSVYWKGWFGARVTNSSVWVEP
UniProt Q9UK73, whole entry, looked up: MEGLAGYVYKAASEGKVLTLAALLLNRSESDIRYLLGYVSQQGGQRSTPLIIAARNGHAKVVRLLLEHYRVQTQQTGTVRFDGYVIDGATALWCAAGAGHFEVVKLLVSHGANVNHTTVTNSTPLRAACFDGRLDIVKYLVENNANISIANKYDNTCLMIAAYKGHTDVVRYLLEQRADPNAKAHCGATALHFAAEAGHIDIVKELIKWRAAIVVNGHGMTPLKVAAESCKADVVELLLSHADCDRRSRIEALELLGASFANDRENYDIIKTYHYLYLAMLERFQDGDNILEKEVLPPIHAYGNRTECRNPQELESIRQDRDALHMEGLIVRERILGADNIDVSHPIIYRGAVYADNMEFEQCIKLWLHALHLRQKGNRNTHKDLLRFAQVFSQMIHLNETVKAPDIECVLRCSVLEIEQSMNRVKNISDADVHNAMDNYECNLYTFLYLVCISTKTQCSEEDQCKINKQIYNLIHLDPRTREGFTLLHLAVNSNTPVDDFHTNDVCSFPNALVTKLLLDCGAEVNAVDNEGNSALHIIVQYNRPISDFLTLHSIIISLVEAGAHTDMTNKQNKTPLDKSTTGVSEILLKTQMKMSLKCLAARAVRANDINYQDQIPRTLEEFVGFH
UniProt Q6PJ61: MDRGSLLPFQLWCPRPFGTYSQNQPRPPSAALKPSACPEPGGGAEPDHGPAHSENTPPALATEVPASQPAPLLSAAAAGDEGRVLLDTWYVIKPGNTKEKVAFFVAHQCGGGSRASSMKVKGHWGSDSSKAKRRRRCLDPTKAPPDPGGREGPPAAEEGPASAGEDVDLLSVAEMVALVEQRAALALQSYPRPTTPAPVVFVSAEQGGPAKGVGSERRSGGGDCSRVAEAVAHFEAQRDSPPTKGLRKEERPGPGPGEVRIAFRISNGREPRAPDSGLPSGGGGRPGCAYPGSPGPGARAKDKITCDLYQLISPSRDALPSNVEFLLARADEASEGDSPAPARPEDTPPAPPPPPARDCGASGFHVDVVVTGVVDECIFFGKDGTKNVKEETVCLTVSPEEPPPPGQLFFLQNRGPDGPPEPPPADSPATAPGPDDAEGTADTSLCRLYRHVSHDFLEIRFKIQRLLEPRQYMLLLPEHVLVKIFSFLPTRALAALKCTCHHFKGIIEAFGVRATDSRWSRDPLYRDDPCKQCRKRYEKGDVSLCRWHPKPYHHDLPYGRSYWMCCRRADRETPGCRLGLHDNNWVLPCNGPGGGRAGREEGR
UniProt Q96CP2: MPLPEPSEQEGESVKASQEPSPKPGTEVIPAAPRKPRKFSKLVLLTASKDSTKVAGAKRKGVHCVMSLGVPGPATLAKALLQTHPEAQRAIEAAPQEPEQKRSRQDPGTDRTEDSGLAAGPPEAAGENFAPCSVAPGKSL
UniProt O95363: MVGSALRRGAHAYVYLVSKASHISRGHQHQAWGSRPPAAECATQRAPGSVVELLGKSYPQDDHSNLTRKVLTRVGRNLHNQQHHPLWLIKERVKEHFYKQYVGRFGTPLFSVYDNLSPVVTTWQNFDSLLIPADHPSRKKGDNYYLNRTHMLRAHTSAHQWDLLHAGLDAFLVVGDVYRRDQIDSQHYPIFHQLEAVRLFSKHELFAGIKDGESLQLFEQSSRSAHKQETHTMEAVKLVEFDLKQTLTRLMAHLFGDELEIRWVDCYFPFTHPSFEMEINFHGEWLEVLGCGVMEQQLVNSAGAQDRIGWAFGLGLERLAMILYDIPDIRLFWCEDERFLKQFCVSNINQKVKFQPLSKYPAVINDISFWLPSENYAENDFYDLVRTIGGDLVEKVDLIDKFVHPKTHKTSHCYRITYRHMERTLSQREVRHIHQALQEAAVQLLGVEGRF
UniProt Q02790: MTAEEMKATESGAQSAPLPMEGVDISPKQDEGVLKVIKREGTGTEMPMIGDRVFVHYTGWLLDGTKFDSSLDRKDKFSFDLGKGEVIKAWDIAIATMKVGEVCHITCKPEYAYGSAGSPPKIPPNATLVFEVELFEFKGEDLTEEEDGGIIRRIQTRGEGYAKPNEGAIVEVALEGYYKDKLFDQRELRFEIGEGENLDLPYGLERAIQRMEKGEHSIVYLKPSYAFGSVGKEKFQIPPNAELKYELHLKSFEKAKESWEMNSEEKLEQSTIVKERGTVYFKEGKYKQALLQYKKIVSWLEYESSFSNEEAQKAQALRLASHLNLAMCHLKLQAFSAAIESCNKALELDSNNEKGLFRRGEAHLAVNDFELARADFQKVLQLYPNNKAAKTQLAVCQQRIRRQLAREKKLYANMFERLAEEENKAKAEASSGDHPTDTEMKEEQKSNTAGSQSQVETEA
UniProt Q9Y285: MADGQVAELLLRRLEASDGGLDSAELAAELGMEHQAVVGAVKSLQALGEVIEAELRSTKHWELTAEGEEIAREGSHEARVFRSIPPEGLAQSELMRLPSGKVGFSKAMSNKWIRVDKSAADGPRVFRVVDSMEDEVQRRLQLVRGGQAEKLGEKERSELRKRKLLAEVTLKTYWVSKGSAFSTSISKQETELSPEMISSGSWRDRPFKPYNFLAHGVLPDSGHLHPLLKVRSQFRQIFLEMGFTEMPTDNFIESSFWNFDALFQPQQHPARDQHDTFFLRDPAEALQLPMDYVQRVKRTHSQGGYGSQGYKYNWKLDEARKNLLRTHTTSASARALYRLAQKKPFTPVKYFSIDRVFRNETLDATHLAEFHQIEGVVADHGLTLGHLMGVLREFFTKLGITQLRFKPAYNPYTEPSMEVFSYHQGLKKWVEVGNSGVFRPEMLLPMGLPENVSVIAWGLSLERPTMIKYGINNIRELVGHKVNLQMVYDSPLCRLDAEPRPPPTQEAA
UniProt Q9UK99: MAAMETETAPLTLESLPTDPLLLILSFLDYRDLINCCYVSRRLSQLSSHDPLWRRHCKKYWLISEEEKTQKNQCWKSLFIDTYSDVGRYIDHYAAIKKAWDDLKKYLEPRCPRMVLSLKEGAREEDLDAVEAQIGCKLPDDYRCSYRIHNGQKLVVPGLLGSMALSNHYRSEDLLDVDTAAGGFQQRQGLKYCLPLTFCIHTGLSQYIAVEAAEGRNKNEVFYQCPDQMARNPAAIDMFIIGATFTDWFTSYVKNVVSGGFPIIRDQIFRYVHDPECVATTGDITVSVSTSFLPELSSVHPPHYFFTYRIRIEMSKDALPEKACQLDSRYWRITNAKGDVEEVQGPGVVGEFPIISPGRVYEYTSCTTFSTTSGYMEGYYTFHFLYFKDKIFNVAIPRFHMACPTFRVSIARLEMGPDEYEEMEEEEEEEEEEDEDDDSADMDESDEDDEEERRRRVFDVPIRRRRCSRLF
UniProt Q8N0W3: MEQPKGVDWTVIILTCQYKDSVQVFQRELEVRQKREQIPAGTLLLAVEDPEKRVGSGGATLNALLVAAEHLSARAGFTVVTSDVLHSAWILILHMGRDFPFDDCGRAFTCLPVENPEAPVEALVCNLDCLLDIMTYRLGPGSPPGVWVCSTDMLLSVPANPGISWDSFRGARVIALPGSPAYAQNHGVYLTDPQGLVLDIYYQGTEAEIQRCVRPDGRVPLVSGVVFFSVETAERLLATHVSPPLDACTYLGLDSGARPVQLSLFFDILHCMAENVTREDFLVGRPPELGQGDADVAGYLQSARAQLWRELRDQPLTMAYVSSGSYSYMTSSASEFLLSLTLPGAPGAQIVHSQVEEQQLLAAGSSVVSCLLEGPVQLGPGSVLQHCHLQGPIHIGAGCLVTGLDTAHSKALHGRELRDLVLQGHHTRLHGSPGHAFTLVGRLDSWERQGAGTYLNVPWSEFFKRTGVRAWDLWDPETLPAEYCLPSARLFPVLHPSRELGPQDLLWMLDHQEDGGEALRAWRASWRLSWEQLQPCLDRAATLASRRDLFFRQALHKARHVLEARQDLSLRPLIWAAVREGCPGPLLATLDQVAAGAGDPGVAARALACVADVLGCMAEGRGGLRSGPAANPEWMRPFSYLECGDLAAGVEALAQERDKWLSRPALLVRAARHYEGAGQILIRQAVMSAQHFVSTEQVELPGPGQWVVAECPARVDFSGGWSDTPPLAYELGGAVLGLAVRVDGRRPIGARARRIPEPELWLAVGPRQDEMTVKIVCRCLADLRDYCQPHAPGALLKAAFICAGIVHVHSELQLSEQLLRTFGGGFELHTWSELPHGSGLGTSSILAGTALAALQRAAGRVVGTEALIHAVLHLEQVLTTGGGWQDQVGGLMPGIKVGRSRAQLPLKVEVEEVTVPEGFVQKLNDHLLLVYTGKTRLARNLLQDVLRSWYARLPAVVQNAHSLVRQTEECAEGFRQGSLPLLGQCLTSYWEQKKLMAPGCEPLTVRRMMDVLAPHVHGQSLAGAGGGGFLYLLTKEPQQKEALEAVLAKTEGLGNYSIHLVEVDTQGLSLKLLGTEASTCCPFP
UniProt Q6UN15: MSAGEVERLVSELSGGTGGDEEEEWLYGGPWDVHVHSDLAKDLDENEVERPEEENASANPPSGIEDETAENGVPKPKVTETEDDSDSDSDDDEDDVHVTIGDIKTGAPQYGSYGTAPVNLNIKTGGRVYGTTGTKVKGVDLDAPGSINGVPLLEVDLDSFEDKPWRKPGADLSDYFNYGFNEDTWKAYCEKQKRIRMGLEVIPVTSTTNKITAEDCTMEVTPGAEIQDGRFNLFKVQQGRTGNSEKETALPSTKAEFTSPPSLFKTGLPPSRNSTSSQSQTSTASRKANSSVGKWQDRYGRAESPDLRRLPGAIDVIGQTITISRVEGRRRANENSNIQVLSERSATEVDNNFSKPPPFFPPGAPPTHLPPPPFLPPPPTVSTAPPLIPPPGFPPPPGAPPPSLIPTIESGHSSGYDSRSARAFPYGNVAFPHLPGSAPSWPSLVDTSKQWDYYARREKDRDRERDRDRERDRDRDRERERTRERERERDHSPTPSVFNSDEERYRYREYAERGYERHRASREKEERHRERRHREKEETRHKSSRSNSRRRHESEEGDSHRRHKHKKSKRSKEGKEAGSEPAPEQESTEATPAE
UniProt Q96IV6: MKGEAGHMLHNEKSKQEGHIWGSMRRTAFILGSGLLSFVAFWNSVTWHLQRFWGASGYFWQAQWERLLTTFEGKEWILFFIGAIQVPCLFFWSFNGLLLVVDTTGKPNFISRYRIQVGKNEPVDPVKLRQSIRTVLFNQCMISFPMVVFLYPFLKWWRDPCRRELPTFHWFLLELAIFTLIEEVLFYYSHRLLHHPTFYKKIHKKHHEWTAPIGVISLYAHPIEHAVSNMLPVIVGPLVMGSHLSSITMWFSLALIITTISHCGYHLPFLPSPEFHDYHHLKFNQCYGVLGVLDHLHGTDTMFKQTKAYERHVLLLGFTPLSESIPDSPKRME
UniProt Q96AY3, whole entry, looked up: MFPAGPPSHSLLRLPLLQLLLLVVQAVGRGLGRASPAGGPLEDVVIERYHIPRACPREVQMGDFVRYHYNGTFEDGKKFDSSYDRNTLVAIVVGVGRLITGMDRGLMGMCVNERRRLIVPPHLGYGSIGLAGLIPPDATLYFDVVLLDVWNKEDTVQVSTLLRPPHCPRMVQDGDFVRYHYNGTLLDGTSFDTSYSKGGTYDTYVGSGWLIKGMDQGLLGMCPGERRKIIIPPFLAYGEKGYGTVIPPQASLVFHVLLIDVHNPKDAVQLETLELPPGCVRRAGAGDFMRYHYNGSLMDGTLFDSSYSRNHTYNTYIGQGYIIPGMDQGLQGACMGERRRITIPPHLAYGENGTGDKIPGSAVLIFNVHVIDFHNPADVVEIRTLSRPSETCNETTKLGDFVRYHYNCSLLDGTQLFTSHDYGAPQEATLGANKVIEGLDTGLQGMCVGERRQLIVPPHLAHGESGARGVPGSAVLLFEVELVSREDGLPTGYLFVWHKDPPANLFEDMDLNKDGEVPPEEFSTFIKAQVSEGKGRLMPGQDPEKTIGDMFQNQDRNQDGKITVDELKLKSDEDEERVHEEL
UniProt O95684: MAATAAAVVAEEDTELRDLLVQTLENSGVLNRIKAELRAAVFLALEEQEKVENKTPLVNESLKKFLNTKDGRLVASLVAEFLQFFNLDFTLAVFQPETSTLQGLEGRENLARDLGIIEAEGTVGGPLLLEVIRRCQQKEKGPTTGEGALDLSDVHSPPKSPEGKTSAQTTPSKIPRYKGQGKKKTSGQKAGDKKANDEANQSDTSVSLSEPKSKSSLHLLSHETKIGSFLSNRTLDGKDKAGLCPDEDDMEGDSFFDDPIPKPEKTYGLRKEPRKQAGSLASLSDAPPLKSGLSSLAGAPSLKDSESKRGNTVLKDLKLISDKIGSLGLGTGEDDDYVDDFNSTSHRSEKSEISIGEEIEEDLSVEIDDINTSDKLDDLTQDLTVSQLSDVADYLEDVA

Columns and labels:
Test in all cases: log2 fold change, soluble protein after heating vs DMSO (PISA); higher = thermal stabilisation; K562 lysate, 10 uM; active = over 0.2 and 3.5 SD of the protein, either way, in both replicates (recomputed)
[1] = compound: C1=CC=C(C=C1)[C@H](COC2=CC3=C(C=C2)NC(=O)N3)NC(=O)C4=CC=CN(C4=O)CC5=CC(=C(C=C5)F)F
How it was run: (§1)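 Thermal stability, expressed as log-two fold change relative to solvent controls, is given from duplicates. Crude K562 extract in PBS pH 7.4 with 1 mM MgCl2, at 1 mg/mL protein, was treated with 10 μM compound for 30 min and heated in aliquots for 3 min across 48°C-58°C. After pooling, adjustment to 0.5% NP-40 at 4°C and centrifugation at 21,000xg for 90 min, supernatant protein was measured by TMTpro 16plex LC-MS/MS with channel sums equalised.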

[2] = compound: CC1=C(SC2=C1C(=N[C@H](C3=NN=C(N32)C)CC(=O)N)C4=CC=C(C=C4)Cl)C
How it was run: as §1

[3] = compound: CC1=C2C(=CC=C1)N=C(N(C2=O)C3=CC=CC=C3C)CN4C=NC5=C(N=CN=C54)N
How it was run: as §1

[4] = compound: Cc1sc2c(c1C)C(c1ccc(Cl)cc1)=N[C@@H](CC(=O)OC(C)(C)C)c1nnc(C)n1-2
How it was run: as §1

[5] = compound: c1ccc([C@@H]2C[C@H]2NC2CCNCC2)cc1
How it was run: as §1

Measured: log2 fold change

FBXO2 (UniProt Q9UK22)
inactive: [1] -0.274 | [2] 0.068 | [3] -0.18 | [4] -0.06 | [5] -0.395

FEM1B (UniProt Q9UK73)
inactive: [1] 0.048 | [2] 0.1 | [3] -0.06 | [4] 0.003 | [5] -0.118

FDXR isoform 7 (UniProt P22570)
inactive: [1] 0.005 | [2] -0.004 | [3] 0 | [4] 0.068 | [5] 0.011

FBXO46 (UniProt Q6PJ61)
inactive: [1] -0.004 | [2] -0.01 | [3] -0.041 | [4] -0.018 | [5] -0.037

FLYWCH2 (UniProt Q96CP2)
inactive: [1] 0.014 | [2] 0.069 | [3] -0.01 | [4] 0.046 | [5] 0.068

FARS2 (UniProt O95363)
inactive: [1] 0.154 | [2] -0.067 | [3] 0.006 | [5] 0.155

FKBP4 (UniProt Q02790)
inactive: [1] -0.001 | [2] 0.002 | [3] -0.003 | [4] 0.006 | [5] 0.012

FN1 (UniProt P02751)
inactive: [1] 0.045 | [2] -0.023 | [3] -0.078 | [4] 0.062 | [5] -0.02

FARSA (UniProt Q9Y285)
inactive: [1] 0.028 | [2] 0.171 | [3] -0.003 | [4] -0.028 | [5] -0.009

FBXO3 (UniProt Q9UK99)
inactive: [1] -0.002 | [2] 0.055 | [3] 0.004 | [4] -0.026 | [5] -0.013

FCSK (UniProt Q8N0W3)
inactive: [1] 0.008 | [2] -0.002 | [3] 0.052 | [4] -0.066 | [5] -0.018

Random excerpt: 2 entries already listed.
FBXO3 (UniProt Q9UK99)
inactive: [1] -0.002 | [2] 0.055 | [3] 0.004 | [4] -0.026 | [5] -0.013

FARSA (UniProt Q9Y285)
inactive: [1] 0.028 | [2] 0.171 | [3] -0.003 | [4] -0.028 | [5] -0.009

Further records follow:

FIP1L1 (UniProt Q6UN15)
inactive: [1] -0.064 | [2] 0.015 | [3] 0.003 | [4] 0.014 | [5] -0.002

FAXDC2 (UniProt Q96IV6)
inactive: [4] -0.055 | [5] -0.111

FASTKD1 (UniProt Q53R41)
inactive: [3] 0.024 | [4] 0.001 | [5] 0.021

FKBP10 (UniProt Q96AY3)
inactive: [4] 0.023 | [5] 0.015

FGFR1OP isoform 3 (UniProt O95684)
inactive: [3] -0.257
